Experimental data reported in patent US10758530B2, “Carboxamide derivatives useful as rsk inhibitors” (PHOENIX MOLECULAR DESIGNS, priority 2016, dated 2020).

What follows are compounds tested on CD34+ cells (assay: Colony forming unit hematopoietic stem cell assay). Details: ratio of IC50 against CD34 cells and MDA-MB-231 cells.
Assay type: cell-based, human

| SMILES | Therapeutic Window |
| --- | --- |
| C[C@@H]1CNC(=O)c2cc3ccc(C(=O)Nc4cnn(Cc5ccccc5)c4)nc3n21 [Compound 0, (R)—N-(1-benzyl-1H-pyrazol-4-yl)-9-methyl-6-oxo-6,7,8,9-tetrahydropyrido[3′,2′:4,5]pyrrolo[1,2-a]pyrazine-2-carboxamide, reference compound] | 50X |
| CC(=O)O[C@H]1C(=O)[C@@]2(C)[C@H]([C@H](OC(=O)c3ccccc3)[C@]3(O)C[C@H](OC(=O)[C@H](O)[C@@H](NC(=O)c4ccccc4)c4ccccc4)C(C)=C1C3(C)C)[C@]1(OC(C)=O)CO[C@@H]1C[C@@H]2O [Taxol, paclitaxel, reference compound] | 6.9X |
| C[C@@H]1CNC(=O)c2cc3ccc(C(=O)Nc4cnn(Cc5cccc(N)c5)c4)nc3n21 [Compound 16, (R)—N-(1-(3-aminobenzyl)-1H-pyrazol-4-yl)-9-methyl-6-oxo-6,7,8,9-tetrahydropyrido[3′,2′:4,5]pyrrolo[1,2-a]pyrazine-2-carboxamide] | >100X |
| C[C@@H]1CNC(=O)c2cc3ccc(C(=O)Nc4cnn(Cc5ccc(N)cc5)c4)nc3n21 [Compound 25, (R)—N-(1-(4-aminobenzyl)-1H-pyrazol-4-yl)-9-methyl-6-oxo-6,7,8,9-tetrahydropyrido[3′,2′:4,5]pyrrolo[1,2-a]pyrazine-2-carboxamide hydrochloride salt] | >100X |

Where a name gives a salt, the structure may show the parent alone. No dose or concentration is given here for some results.
